From PMC7862700
The list shows a part of the results, in another mix than the full data. At the low end of the ranking the order means little.

Amino acid sequences for entries named in this document (tags omitted). A change or cut given only in a name is not applied to a line headed by its entry.
UniProt O43186: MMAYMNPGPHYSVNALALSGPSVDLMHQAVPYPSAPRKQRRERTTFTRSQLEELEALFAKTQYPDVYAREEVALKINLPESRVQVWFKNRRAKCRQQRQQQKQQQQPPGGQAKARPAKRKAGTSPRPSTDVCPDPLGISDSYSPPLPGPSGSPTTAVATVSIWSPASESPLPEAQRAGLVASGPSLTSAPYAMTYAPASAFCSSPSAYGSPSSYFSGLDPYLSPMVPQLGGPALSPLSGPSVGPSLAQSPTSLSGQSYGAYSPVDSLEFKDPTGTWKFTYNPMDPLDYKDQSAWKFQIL

What follows are sequences tested against CRX (UniProt O43186) (assay: DAPPL (digital affinity profiling via proximity ligation, sequencing)). Details: 10 mM Tris-HCl pH 7.5, 50 mM NaCl, 1 mM DTT, 4% glycerol, room temperature, 30 min; GST-TFs on glutathione beads, 16-mer random dsDNA library, 0.1% …; high values mean tight binding; double strand, one strand shown; scale: fold enrichment (6-mer frequency, TF over GST control).

Row | Sequence | binding signal
1 | CTTCAC | 1.17
2 | TATCTG | 1.46
3 | CTGTTG | 0.937
4 | AAAAAC | 1.16
5 | TGTTCC | 1.21
6 | CAATTA | 1.25
7 | ATATAT | 1.46
8 | GTCACT | 0.748
9 | CCTGTG | 0.809
10 | GGGCTC | 0.974
11 | TATGCC | 1.18
12 | AGTACT | 1.02
13 | GCAATT | 0.976
14 | CGCCGG | 0.639
15 | TCCATG | 1.13
16 | CTCTTA | 2.2
17 | CCGAAT | 1.33
18 | GCTCAT | 1.35
19 | CTCGAA | 1.9
20 | CCAACA | 0.792

Row | Sequence | binding signal
21 | CCTTCG | 1.28
22 | GCCGCT | 1.02
23 | ACTAGG | 0.951
24 | CGAACA | 1.1
25 | TGGACA | 0.836
26 | GACTCC | 1.02
27 | TACAGG | 1.08
28 | CAACCC | 0.886
29 | GGTTCA | 0.86
30 | TGATGT | 1.05
31 | CACATG | 0.855
32 | CCCTTA | 1.59
33 | GAAGAA | 0.936
34 | ACATGT | 0.853
35 | CCCATC | 0.914
36 | AATTTT | 1.29
37 | GCGTTT | 0.926
38 | AAGATG | 1.27
39 | TGGATA | 1.34
